Reference: the supplement of paper PMC12067093, “Discovery and optimisation of a covalent ligand for TRIM25 and its application to targeted protein ubiquitination” (Chemical Science, 2025)
The list shows a part of the results.

Chains of the proteins cited; added tags and fusions are not shown. Lines headed by an entry give the natural chain unless they say otherwise; changes in a name come on top.
UniProt Q99832: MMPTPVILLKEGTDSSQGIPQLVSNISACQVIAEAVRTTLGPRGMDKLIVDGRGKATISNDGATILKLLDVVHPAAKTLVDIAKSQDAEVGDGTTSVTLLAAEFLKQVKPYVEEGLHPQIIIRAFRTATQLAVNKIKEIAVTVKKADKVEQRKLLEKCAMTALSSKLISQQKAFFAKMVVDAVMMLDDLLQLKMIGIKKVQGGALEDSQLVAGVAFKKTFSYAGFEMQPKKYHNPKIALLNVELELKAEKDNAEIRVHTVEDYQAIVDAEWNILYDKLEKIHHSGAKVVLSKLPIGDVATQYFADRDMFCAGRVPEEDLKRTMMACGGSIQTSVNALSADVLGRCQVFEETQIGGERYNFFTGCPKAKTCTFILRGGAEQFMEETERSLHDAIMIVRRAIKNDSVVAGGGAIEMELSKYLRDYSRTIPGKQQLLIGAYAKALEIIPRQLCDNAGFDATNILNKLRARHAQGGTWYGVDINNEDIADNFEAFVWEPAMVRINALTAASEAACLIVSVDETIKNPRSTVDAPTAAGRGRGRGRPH
UniProt P49336: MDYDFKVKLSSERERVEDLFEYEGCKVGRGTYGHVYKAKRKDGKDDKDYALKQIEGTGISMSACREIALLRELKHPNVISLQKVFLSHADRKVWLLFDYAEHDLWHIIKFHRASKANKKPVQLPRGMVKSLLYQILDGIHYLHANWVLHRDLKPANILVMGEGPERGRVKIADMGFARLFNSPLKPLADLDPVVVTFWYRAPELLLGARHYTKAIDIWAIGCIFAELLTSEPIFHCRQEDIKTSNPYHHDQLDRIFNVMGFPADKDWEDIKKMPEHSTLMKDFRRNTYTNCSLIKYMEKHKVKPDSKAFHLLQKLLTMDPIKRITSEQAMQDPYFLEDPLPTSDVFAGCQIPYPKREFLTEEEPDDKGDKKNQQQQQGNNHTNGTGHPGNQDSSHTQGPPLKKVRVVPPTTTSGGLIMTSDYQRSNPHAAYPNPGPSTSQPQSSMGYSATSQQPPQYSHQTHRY
UniProt Q6ZMG9: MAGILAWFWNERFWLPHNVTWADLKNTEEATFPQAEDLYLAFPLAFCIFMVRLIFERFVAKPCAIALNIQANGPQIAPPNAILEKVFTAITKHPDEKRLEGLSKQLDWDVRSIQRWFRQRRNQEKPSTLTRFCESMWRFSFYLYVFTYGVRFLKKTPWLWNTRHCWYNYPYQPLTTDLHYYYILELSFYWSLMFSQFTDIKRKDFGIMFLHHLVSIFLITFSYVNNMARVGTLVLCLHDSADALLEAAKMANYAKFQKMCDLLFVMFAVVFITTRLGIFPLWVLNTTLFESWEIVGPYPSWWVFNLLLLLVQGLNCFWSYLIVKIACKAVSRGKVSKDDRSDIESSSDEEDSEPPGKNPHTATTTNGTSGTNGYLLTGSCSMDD
UniProt Q6IPU0: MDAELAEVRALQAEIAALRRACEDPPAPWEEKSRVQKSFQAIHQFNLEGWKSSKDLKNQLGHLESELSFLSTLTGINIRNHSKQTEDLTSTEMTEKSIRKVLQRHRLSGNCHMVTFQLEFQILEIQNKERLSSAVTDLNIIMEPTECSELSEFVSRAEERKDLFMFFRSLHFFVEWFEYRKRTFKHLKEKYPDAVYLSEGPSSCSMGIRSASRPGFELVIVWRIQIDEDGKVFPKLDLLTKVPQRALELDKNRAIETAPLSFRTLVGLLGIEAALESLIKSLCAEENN
UniProt Q00535, whole entry, looked up: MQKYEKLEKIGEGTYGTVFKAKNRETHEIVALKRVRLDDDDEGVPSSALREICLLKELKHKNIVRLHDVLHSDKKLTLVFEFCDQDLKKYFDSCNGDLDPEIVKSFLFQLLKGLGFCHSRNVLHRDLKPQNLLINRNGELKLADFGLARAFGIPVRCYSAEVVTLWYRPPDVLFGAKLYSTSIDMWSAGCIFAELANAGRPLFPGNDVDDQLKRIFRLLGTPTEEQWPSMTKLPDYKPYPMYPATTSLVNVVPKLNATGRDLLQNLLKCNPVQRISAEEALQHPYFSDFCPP
UniProt Q13042, whole entry, looked up: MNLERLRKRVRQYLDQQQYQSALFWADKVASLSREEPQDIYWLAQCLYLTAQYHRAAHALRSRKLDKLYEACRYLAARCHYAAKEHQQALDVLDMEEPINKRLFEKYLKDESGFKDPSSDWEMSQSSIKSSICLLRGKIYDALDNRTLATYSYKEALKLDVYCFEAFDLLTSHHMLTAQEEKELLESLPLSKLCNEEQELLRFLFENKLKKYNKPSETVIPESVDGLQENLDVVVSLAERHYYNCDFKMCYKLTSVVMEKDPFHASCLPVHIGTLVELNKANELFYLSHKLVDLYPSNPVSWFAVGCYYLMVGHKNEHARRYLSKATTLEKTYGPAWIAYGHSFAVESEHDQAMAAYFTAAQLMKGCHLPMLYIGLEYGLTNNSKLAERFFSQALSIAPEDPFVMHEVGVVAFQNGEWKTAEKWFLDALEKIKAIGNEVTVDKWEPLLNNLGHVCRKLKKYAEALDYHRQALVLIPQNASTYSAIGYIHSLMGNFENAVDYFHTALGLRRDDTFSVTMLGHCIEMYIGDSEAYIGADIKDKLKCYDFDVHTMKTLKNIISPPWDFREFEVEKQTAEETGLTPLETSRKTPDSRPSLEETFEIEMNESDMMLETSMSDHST
UniProt Q9UJX2, whole entry, looked up: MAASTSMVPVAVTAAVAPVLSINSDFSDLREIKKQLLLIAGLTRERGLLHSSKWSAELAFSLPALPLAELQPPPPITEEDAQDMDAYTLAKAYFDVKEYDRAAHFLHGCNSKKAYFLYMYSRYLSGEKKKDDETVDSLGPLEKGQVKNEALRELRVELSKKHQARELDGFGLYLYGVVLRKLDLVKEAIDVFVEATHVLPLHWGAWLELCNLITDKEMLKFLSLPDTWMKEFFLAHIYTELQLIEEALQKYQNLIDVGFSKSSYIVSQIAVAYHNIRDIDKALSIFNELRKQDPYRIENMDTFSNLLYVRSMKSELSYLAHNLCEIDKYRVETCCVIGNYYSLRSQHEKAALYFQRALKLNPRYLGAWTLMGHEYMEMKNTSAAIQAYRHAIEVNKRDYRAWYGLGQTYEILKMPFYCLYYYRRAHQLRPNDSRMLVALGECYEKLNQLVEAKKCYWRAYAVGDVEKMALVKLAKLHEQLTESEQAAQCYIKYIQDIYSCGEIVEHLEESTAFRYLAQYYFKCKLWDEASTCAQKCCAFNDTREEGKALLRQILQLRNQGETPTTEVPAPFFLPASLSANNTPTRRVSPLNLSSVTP
UniProt P49454: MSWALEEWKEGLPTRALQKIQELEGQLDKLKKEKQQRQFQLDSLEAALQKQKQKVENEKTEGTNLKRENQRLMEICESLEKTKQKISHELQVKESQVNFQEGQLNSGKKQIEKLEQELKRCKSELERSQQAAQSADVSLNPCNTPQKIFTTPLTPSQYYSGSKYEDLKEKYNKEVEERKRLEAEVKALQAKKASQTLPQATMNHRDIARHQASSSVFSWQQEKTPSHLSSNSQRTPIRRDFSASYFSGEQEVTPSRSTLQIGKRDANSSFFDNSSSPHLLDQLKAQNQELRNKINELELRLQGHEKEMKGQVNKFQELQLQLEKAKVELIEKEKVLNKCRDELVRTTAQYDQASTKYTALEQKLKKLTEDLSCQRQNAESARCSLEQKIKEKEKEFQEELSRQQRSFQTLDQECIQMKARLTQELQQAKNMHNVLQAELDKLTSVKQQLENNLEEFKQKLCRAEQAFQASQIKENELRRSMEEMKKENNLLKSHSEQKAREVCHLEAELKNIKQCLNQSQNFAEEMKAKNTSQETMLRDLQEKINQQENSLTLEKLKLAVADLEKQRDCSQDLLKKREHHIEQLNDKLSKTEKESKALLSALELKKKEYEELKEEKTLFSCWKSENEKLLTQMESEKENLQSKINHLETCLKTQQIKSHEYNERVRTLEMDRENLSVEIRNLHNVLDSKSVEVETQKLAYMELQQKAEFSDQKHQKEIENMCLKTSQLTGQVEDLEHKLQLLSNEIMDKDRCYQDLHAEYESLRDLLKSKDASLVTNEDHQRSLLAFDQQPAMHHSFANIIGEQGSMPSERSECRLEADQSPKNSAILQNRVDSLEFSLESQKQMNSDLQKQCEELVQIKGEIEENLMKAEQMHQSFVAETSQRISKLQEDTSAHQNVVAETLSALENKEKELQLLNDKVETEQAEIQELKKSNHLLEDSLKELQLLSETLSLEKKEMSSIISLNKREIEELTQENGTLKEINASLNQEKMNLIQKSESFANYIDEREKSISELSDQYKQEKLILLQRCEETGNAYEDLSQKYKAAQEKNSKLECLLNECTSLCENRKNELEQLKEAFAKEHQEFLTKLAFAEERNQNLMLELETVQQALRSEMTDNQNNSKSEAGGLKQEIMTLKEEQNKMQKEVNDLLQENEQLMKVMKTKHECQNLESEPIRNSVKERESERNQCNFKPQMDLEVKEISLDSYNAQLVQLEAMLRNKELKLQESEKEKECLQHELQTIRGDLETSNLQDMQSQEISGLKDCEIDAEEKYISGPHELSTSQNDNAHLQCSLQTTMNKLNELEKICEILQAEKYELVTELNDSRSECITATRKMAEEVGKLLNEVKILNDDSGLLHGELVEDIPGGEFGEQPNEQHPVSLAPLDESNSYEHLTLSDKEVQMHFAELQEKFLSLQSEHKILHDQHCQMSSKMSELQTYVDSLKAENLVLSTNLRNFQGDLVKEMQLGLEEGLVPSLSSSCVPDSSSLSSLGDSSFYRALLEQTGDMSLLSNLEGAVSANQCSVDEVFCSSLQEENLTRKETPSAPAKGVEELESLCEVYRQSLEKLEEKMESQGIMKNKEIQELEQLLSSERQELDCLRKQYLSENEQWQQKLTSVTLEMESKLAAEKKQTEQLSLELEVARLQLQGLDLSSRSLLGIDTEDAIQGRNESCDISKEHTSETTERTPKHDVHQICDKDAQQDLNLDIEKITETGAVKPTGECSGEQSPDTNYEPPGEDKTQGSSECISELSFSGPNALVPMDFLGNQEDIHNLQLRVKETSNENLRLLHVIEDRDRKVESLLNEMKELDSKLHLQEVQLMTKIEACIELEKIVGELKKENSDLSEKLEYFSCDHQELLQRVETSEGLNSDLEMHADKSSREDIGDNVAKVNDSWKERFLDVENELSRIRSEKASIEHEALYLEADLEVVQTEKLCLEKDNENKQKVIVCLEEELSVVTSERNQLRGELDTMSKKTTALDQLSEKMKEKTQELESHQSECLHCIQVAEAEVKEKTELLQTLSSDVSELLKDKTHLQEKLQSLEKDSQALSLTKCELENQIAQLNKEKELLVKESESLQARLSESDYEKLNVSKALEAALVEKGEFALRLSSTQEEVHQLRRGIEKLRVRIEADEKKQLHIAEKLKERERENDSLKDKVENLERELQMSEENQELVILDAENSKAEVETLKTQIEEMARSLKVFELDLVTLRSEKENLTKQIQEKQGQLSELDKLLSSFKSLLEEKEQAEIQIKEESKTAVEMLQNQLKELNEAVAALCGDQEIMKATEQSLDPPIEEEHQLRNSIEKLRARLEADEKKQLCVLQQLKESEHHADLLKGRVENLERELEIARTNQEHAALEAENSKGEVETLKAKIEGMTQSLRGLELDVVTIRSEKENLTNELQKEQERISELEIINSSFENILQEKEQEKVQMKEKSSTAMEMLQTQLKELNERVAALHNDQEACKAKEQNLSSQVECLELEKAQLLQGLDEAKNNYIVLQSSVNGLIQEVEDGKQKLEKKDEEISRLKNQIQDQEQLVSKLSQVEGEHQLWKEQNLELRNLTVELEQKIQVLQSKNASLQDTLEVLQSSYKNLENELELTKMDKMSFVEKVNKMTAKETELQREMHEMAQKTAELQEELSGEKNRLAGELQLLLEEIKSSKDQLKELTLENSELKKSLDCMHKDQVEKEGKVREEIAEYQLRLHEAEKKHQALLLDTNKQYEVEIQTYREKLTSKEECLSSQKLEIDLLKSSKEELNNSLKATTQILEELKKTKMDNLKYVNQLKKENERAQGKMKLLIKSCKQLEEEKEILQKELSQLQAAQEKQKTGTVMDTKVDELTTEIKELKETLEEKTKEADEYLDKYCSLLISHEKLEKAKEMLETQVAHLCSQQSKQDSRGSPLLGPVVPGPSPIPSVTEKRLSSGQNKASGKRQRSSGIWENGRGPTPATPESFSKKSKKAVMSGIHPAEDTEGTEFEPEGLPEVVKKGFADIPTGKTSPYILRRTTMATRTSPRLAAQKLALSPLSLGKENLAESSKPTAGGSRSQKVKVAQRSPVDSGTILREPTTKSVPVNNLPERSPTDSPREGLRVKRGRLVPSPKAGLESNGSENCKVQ
UniProt Q9BS16: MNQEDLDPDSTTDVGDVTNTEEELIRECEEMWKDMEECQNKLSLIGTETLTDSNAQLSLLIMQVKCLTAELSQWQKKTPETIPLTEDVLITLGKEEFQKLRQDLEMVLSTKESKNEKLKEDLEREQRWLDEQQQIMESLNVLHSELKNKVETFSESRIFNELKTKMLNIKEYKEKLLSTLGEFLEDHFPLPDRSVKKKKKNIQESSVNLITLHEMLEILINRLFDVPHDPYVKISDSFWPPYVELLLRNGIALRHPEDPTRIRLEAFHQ

Compound: Cc1cc(ccc1-c1ccccc1)C(=O)N1CCCN(CC1)C(=O)CCl [compound 10]
Test: probe-labelled cysteine peptide fold change vs DMSO (competition) (log2 fold change); higher = less target engagement (more negative = stronger competition)
Conditions: THP-1, incubation time: 4 h
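Also: competitive profiling in live THP-1 cells: cysteine peptides tagged with an iodoacetamide desthiobiotin (IA-DTB) probe, intensity after compound treatment relative to DMSO-treated cells.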

Target | probe-labelled cysteine peptide fold change (10 µM) | probe-labelled cysteine peptide fold change (50 µM)
CD46_P15529_162_VLCTPPPK (UniProt P15529) | 0.00526 | 0.0163
CELF1_Q92879_119_KCTENDIR (UniProt Q92879) | -0.0079 | 0.125
CCT8_P50990_430_QITSYGETCPGLEQYAIK (UniProt P50990) | -0.104 | 0.00767
CERCAM_Q5T4B2_391_GEVGCFLSHYSIWEEVVAR (UniProt Q5T4B2) | 0.0439 | -0.232
CDK14_O94921_402_LLQCSPK (UniProt O94921) | -0.0479 | -0.0855
CD40_P25942_111_GTSETDTICTCEEGWHCTSEACESCVLHR (UniProt P25942) | 0.163 | 0.149
CDC27_P30260_179+184_FTSLQNFSNCLPNSCTTQVPNHSLSHR (UniProt P30260) | -0.0748 | -0.468
CDK6_Q00534_280_CLTFNPAK (UniProt Q00534) | 0.199 | -0.0193
CEP68_Q76N32_465_RPTCTESR (UniProt Q76N32) | -0.05 | -0.0517
CEP152_O94986_1019_ETELQTCLDQSR (UniProt O94986) | 0.0172 | 0.0625
CCT7_Q99832_29_EGTDSSQGIPQLVSNISACQVIAEAVR (UniProt Q99832) | 0.0492 | 0.104
CCT8_P50990_136_IGLSVSEVIEGYEIACR (UniProt P50990) | 0.491 | 0.391
CCT6A_P40227_406_NAIDDGCVVPGAGAVEVAMAEALIK (UniProt P40227) | -0.0356 | 0.0935
CDC27_P30260_503_EAINILSHLPSHHYNTGWVLCQIGR (UniProt P30260) | 0.179 | 0.123
CDK8_P49336_25_ERVEDLFEYEGCK (UniProt P49336) | -0.152 | -0.0999
CERS6_Q6ZMG9_380_NPHTATTTNGTSGTNGYLLTGSCSMDD (UniProt Q6ZMG9) | -0.421 | -0.475
CFAP298_P57076_83_CVPSGGAVFKK (UniProt P57076) | -0.318 | -0.252
CDC20_Q12834_472_CFELDPAR (UniProt Q12834) | 0.0942 | -0.00193
CDCA2_Q69YH5_315_SPATPACR (UniProt Q69YH5) | -0.123 | -0.761
CCT8_P50990_149_AHEILPNLVCCSAK (UniProt P50990) | 0.0904 | -0.18
CDC27_P30260_115+126_SHDDIVTEFGDSACFTLSLLGHVYCK (UniProt P30260) | 0.494 | 0.00837

Target | probe-labelled cysteine peptide fold change (10 µM) | probe-labelled cysteine peptide fold change (50 µM)
CDAN1_Q8IWY9_400_LLCFSPALQGR (UniProt Q8IWY9) | 0.131 | 0.0957
CCT7_Q99832_326_TMMACGGSIQTSVNALSADVLGR (UniProt Q99832) | 0.0223 | -0.163
CCT8_P50990_244_IAVYSCPFDGMITETK (UniProt P50990) | -0.00607 | -0.342
CDC73_Q6P1J9_145_IEDEECVRLDK (UniProt Q6P1J9) | -0.235 | -0.426
CDK8_P49336_25_VEDLFEYEGCK (UniProt P49336) | 0.0232 | -0.0925
CDPF1_Q6NVV7_7_ASHVECR (UniProt Q6NVV7) | -0.0893 | -0.337
CEP97_Q8IW35_34_LGPNLPCEADIHTLILDK (UniProt Q8IW35) | -0.0455 | -0.0325
CD38_P28907_119_LGTQTVPCNK (UniProt P28907) | -0.194 | -0.112
CENPP_Q6IPU0_147_LSSAVTDLNIIMEPTECSELSEFVSR (UniProt Q6IPU0) | -0.118 | 0.107
CENPC_Q03188_612_CSLSEPLESDEADLAK (UniProt Q03188) | -0.164 | 0.0777
CDC27_P30260_673_ALDINPQSSVLLCHIGVVQHALKK (UniProt P30260) | 0.142 | -0.243
CDC27_P30260_673_ALDINPQSSVLLCHIGVVQHALK (UniProt P30260) | 0.136 | 0.0245
CDCA2_Q69YH5_792_DCHCLGDVLIENTK (UniProt Q69YH5) | -0.367 | -0.891
CDK5_Q00535_83_LTLVFEFCDQDLK (UniProt Q00535) | -0.00543 | 0.283
CENPC_Q03188_291_HAATAPPHSCPPDDTK (UniProt Q03188) | 0.0866 | -0.0296
CELF2_O95319_143_CNENDIR (UniProt O95319) | 0.0358 | 0.224
CDC16_Q13042_194_LCNEEQELLR (UniProt Q13042) | -0.0905 | -0.174
CDC23_Q9UJX2_532_LWDEASTCAQK (UniProt Q9UJX2) | -0.064 | -0.308
CEP192_Q8TEP8_882_TCSIDNK (UniProt Q8TEP8) | -0.184 | -0.345
CEP164_Q9UPV0_437_ISEHLLDVDVLSPVLGGACR (UniProt Q9UPV0) | -0.298 | 0.236
CEP85_Q6P2H3_527_VTELESLLEETQAICR (UniProt Q6P2H3) | 0.0519 | 0.465

Rewritten as comma-separated lines: entries from further up.
Target,probe-labelled cysteine peptide fold change (10 µM),probe-labelled cysteine peptide fold change (50 µM)
CDK5_Q00535_83_LTLVFEFCDQDLK (UniProt Q00535),-0.00543,0.283
CENPC_Q03188_291_HAATAPPHSCPPDDTK (UniProt Q03188),0.0866,-0.0296

(next part)

Target | probe-labelled cysteine peptide fold change (10 µM) | probe-labelled cysteine peptide fold change (50 µM)
CENPF_P49454_2776_SLDCMHK (UniProt P49454) | 0.233 | 0.324
CENPU_Q71F23_239_AIGSDTSDIVHIWCPEGMK (UniProt Q71F23) | -0.159 | -0.255
CCT6A_P40227_233_KRVEDAYILTCNVSLEYEK (UniProt P40227) | 0.071 | -0.45
CENPF_P49454_2961_YCSLLISHEK (UniProt P49454) | 0.225 | 0.291
CD44_P16070_77_ALSIGFETCR (UniProt P16070) | -0.124 | -0.0909
CEP76_Q8TAP6_156_SKPVPCACEPDFHDGFLLEVHR (UniProt Q8TAP6) | 0.00849 | -0.166
CENPF_P49454_1233_ECLQHELQTIR (UniProt P49454) | 0.051 | 0.17
CDK4_P11802_135_GLDFLHANCIVHR (UniProt P11802) | -0.0105 | -0.265
CENPV_Q7Z7K6_152+154_HTGGCHCGAVR (UniProt Q7Z7K6) | 0.00162 | 0.119
CEP350_Q5VT06_2716_LCTPLLDLLTR (UniProt Q5VT06) | -0.0654 | -0.155
CENPI_Q92674_332_EMSLSDCLNR (UniProt Q92674) | -0.0675 | -0.367
CCT6A_P40227_508_QLLHSCTVIATNILLVDEIMR (UniProt P40227) | 0.147 | 0.462
CEP63_Q96MT8_108_LHEELCILK (UniProt Q96MT8) | -0.278 | -0.235
CDC20_Q12834_403_IWNVCSGACLSAVDAHSQVCSILWSPHYK (UniProt Q12834) | 0.3 | 0.258
CENPK_Q9BS16_66_CLTAELSQWQK (UniProt Q9BS16) | 0.0921 | -0.0128
CCT8_P50990_149_KAHEILPNLVCCSAK (UniProt P50990) | 0.0395 | -0.739
CENPP_Q6IPU0_22_ACEDPPAPWEEK (UniProt Q6IPU0) | -0.0252 | -0.0362
CDC23_Q9UJX2_489_LHEQLTESEQAAQCYIK (UniProt Q9UJX2) | -0.0653 | -0.11
CD93_Q9NPY3_53_LSAAEAQNHCNQNGGNLATVK (UniProt Q9NPY3) | -0.241 | -0.213
CDC16_Q13042_163_EALKLDVYCFEAFDLLTSHHMLTAQEEK (UniProt Q13042) | 0.122 | -0.172
CEP192_Q8TEP8_272_QANENGSLNCK (UniProt Q8TEP8) | -0.432 | -0.576

Target | probe-labelled cysteine peptide fold change (10 µM) | probe-labelled cysteine peptide fold change (50 µM)
CENPF_P49454_569_DCSQDLLK (UniProt P49454) | 0.00598 | -0.032
CEP170_Q5SW79_776_CREETFKQESQPPEK (UniProt Q5SW79) | -0.0718 | -0.739
CEP350_Q5VT06_1557_QESPSVPSCK (UniProt Q5VT06) | -0.113 | -0.568
CENPF_P49454_1188_NQCNFKPQMDLEVK (UniProt P49454) | -0.0482 | -0.261
CEP350_Q5VT06_3083_VDHILVQELHEEEAQWVNYDEDELCVK (UniProt Q5VT06) | -0.235 | 0.105
CDK13_Q14004_840_CSNILLNNR (UniProt Q14004) | -0.022 | -0.0201
CDC73_Q6P1J9_145_IEDEECVR (UniProt Q6P1J9) | -0.177 | 0.00142
CEP192_Q8TEP8_352_GIVPDLNSECASK (UniProt Q8TEP8) | -0.225 | -0.496
CFL1_P23528_139_HELQANCYEEVKDR (UniProt P23528) | -0.0334 | -0.132
CEP131_Q9UPN4_218_AATCEGSESSGFGK (UniProt Q9UPN4) | -0.22 | -0.187
CEP76_Q8TAP6_414_GVPHAWVMTCGTDGAITFWESLTGHR (UniProt Q8TAP6) | 0.187 | 0.262
CERS6_Q6ZMG9_236_VGTLVLCLHDSADALLEAAK (UniProt Q6ZMG9) | 0.186 | 0.0157
CD97_P48960_256_DTVCEDMTFSTWTPPPGVHSQTLSR (UniProt P48960) | -0.0984 | -0.115
CFAP298_P57076_45_LCSEMEELAEHGIFLPPNMQGLTDDQIEELK (UniProt P57076) | 0.268 | 0.46
CDK5_Q00535_94_YFDSCNGDLDPEIVK (UniProt Q00535) | -0.0444 | 0.175
CFD_P00746_148_VDRDVAPGTLCDVAGWGIVNHAGR (UniProt P00746) | -0.0268 | -0.246
CDC27_P30260_126_SHDDIVTEFGDSACFTLSLLGHVYCK (UniProt P30260) | 0.124 | -0.077
CDC23_Q9UJX2_109_AAHFLHGCNSK (UniProt Q9UJX2) | -0.107 | 0.191
CDK5RAP2_Q96SN8_508_DLEVIQQNCYLMAAEDLELR (UniProt Q96SN8) | -0.00437 | 0.476
CEP250_Q9BV73_2348_CVAELQK (UniProt Q9BV73) | -0.0127 | -0.282
CDCA2_Q69YH5_790_DCHCLGDVLIENTK (UniProt Q69YH5) | -0.209 | -0.376
